# Reference: the supplement of paper PMC12819154, “High-throughput peptide-centric local stability assay extends protein–ligand identification to membrane proteins, tissues and bacteria” (Nature Structural & Molecular Biology, 2025)
# Amino acid sequences for entries named in this document (tags omitted). A change or cut given only in a name is not applied to a line headed by its entry.
# UniProt P47224: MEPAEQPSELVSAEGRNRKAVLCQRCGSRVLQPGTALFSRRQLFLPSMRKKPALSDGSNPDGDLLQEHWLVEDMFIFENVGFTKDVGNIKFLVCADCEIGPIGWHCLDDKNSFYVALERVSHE
# UniProt P48729: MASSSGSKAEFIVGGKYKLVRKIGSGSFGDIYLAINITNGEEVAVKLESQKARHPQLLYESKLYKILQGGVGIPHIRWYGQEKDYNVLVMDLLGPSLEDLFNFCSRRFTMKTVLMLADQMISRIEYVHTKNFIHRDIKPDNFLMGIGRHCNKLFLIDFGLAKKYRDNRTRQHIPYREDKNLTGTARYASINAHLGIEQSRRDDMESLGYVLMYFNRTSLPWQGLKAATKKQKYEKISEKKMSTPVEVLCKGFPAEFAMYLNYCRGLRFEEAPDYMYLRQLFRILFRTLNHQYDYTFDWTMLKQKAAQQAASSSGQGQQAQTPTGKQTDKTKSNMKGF
# UniProt P46926: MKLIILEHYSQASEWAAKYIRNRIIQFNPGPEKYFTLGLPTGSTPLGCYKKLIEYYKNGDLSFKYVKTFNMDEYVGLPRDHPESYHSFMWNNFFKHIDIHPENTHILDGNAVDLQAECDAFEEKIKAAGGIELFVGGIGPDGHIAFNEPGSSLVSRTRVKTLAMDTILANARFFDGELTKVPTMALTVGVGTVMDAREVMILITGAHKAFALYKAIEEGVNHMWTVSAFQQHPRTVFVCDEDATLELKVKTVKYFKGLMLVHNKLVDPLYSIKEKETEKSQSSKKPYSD
# UniProt P51955: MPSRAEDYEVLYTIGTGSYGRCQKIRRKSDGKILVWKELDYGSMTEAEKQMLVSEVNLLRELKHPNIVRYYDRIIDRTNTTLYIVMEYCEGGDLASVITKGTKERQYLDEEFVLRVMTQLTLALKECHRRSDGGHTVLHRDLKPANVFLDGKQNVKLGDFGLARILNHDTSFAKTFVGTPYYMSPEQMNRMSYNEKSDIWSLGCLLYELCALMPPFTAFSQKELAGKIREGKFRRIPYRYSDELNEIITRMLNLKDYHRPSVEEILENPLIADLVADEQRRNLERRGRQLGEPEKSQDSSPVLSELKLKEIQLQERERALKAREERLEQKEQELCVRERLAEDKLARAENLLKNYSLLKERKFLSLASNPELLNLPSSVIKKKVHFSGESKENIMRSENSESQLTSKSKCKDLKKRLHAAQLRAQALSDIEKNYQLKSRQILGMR
# UniProt P49454: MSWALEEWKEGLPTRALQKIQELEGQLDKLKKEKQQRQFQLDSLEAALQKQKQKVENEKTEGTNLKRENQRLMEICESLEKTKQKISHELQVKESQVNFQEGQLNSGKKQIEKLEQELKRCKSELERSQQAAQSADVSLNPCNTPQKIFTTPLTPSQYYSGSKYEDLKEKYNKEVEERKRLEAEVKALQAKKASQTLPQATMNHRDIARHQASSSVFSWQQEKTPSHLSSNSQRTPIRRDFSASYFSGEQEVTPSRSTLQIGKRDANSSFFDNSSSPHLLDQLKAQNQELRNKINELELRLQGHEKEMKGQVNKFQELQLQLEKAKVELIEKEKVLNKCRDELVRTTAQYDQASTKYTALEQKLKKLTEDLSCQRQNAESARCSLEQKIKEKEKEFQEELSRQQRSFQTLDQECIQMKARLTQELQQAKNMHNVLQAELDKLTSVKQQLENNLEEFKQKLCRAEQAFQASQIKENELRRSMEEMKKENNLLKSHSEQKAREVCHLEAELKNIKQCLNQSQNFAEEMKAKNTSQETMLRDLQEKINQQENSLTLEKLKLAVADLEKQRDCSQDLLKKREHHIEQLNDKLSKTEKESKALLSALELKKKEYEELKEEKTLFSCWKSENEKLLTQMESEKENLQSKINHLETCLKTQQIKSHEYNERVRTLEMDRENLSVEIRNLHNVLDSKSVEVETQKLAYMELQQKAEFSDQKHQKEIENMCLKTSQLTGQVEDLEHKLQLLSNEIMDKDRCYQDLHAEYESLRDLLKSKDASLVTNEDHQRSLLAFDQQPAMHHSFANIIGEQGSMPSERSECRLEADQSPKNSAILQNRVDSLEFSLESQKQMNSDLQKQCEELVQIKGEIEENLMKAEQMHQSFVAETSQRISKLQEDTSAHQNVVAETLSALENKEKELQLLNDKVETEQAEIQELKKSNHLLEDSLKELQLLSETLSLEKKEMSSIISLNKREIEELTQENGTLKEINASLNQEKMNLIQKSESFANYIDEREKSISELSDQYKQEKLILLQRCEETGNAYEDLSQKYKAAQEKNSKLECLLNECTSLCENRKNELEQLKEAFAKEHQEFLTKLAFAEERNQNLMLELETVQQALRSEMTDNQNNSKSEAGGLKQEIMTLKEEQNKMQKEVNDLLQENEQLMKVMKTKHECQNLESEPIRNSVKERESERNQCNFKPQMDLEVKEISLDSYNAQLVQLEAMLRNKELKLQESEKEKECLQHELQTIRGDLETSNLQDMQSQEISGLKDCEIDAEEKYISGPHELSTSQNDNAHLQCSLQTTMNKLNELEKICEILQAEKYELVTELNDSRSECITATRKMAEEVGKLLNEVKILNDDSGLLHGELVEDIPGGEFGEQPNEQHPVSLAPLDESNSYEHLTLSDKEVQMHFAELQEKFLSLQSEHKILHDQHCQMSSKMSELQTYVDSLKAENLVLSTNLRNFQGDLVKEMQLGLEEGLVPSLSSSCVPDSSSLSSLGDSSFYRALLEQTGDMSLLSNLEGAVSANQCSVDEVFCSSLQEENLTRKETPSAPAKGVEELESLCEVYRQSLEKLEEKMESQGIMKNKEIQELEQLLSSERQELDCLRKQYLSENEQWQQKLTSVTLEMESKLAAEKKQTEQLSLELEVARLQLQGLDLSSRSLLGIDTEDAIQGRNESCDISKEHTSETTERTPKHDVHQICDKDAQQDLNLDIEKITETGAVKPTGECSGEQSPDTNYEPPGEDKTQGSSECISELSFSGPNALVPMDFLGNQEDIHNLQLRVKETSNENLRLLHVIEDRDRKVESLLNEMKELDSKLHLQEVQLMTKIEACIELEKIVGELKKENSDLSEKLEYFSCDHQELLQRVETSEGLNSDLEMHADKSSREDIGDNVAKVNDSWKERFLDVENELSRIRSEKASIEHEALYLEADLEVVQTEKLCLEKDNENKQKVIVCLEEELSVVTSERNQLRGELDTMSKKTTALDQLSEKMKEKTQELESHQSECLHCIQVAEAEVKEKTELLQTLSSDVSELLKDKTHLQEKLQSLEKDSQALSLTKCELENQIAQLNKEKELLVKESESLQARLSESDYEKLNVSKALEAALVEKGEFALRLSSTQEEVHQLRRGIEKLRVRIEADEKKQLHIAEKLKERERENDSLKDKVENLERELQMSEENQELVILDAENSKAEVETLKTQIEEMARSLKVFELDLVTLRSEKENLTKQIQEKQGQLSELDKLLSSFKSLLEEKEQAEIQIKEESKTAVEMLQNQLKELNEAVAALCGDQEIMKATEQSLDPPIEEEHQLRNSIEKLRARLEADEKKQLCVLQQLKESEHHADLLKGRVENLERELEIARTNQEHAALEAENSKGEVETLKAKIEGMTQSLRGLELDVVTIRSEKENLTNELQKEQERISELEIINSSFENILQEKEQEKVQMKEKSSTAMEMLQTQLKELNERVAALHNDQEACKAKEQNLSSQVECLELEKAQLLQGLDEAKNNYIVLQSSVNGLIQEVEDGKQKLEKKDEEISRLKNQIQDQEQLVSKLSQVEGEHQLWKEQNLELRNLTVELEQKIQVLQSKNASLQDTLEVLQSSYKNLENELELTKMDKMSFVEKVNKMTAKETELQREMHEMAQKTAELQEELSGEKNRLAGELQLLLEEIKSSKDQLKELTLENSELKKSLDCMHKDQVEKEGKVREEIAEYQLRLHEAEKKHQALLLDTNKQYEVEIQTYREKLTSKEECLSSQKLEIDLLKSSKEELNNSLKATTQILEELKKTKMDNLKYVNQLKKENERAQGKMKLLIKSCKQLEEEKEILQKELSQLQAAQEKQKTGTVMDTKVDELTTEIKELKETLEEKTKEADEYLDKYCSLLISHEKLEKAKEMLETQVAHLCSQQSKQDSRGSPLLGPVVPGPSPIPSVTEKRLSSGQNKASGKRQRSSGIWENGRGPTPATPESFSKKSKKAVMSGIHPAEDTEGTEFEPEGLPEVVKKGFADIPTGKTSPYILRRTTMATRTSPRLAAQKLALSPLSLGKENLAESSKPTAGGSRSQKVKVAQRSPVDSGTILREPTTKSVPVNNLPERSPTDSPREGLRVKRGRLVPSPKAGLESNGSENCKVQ
# UniProt P54368: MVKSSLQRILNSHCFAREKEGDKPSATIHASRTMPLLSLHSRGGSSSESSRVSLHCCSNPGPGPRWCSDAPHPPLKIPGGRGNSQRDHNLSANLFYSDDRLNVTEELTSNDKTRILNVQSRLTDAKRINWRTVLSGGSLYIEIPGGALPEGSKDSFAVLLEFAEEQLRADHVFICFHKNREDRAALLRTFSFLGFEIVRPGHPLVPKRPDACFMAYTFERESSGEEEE
# UniProt P48637: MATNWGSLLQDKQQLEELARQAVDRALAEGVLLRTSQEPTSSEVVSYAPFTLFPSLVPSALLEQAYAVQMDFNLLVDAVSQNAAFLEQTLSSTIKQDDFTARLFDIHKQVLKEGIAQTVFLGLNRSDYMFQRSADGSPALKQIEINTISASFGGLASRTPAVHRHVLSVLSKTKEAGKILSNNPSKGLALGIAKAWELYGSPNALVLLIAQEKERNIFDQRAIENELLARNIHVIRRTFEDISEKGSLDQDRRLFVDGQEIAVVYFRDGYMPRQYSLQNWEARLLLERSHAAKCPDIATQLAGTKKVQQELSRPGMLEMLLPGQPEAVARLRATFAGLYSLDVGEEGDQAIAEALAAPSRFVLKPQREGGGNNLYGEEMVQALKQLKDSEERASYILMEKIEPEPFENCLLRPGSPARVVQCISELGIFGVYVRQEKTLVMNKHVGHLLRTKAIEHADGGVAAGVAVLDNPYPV
# UniProt P51798: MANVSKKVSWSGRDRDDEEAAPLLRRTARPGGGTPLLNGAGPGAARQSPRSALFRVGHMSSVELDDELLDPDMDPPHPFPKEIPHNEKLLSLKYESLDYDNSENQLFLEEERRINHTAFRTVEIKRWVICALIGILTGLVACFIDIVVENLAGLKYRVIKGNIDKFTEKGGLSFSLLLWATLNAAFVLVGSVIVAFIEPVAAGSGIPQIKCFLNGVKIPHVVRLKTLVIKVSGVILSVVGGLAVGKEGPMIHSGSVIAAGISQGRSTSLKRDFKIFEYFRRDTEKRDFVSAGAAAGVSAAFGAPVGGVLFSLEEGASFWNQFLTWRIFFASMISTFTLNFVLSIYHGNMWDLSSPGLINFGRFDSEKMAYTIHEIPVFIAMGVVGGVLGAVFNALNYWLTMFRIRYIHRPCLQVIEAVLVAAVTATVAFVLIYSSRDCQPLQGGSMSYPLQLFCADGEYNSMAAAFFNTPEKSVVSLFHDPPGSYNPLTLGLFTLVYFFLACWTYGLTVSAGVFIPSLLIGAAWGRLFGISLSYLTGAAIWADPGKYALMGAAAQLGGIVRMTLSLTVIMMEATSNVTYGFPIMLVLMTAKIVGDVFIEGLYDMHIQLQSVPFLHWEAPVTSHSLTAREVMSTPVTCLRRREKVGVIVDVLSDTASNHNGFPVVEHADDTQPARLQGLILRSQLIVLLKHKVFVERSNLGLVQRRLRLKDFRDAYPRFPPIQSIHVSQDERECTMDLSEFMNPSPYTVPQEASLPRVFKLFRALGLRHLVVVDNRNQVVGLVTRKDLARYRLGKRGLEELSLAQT
# UniProt P50454: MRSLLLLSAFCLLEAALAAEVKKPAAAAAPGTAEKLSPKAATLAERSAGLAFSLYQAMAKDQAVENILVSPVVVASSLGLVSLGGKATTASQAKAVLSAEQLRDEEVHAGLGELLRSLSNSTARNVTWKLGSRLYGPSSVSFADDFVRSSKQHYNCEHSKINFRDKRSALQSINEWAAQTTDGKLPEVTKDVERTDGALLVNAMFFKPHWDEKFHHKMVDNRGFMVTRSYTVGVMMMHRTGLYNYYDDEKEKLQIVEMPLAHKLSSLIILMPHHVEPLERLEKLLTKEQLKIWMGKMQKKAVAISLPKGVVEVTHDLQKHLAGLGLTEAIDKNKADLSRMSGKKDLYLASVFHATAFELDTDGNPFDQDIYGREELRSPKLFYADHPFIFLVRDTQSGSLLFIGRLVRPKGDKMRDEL
# UniProt P50583: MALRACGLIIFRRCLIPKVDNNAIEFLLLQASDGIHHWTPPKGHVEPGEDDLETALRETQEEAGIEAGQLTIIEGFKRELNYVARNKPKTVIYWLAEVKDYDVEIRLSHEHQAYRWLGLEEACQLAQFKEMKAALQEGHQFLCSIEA
# UniProt P49795: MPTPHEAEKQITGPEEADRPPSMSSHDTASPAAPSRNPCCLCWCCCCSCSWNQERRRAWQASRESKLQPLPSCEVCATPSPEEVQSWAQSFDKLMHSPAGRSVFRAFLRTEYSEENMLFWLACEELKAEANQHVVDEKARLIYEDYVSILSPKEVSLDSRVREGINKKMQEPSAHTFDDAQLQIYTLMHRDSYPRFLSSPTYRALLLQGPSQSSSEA
# The list shows a part of the results. Most entries show no effect beyond the scatter of the controls.
# Compound: Cc1nc(Nc2ncc(C(=O)Nc3c(C)cccc3Cl)s2)cc(N2CCN(CCO)CC2)n1 [dasatinib]
# Experiment: log2 fold change of tryptic peptide abundance, ligand vs vehicle (limited proteolysis) (log2 ratio); higher = more trypsin-susceptible (destabilized)
# Details: ligand concentration: 5 uM; sample: K562 cleared lysate
row,Target,log2 fold change
1,"PAPOLA (peptide sequence: SSGNAATSGNAATKIPTPIVGVKR, peptide start residue: 628) (UniProt P51003)",0.216
2,"MAPKAPK2 (peptide sequence: VDYEQIK, peptide start residue: 365) (UniProt P49137)",0.283
3,"PGGT1B (peptide sequence: QCSENVHIST, peptide start residue: 368) (UniProt P53609)",0.00546
4,"DGKQ (peptide sequence: DLLCSFR, peptide start residue: 604) (UniProt P52824)",-0.236
5,"CDKN1C (peptide sequence: SLFGPVDHEELSR, peptide start residue: 32) (UniProt P49918)",-0.112
6,"NASP (peptide sequence: MAVLNEQVK, peptide start residue: 618) (UniProt P49321)",0.0534
7,"BRCA2 (peptide sequence: VSLVENIHVLGK, peptide start residue: 2171) (UniProt P51587)",0.701
8,"PLCD1 (peptide sequence: VQHKPKEDK, peptide start residue: 477) (UniProt P51178)",-0.371
9,"PRKX (peptide sequence: LFWTWHDER, peptide start residue: 112) (UniProt P51817)",0.362
10,"IREB2 (peptide sequence: GSCDSGELGR, peptide start residue: 176) (UniProt P48200)",-0.112
11,"RPL27A (peptide sequence: TGAAPIIDVVR, peptide start residue: 95) (UniProt P46776)",-0.0527
12,"RABIF (peptide sequence: VLQPGTALFSR, peptide start residue: 30) (UniProt P47224)",-0.187
13,"UniProt P48729 (peptide sequence: TSLPWQGLK, peptide start residue: 217)",0.276
14,"GNPDA1 (peptide sequence: YFTLGLPTGSTPLGCYKK, peptide start residue: 34) (UniProt P46926)",0.809
15,"UniProt P51955 (peptide sequence: ILNHDTSFAK, peptide start residue: 165)",-0.319
16,"PPP3CC (peptide sequence: KDSIHAGGPMK, peptide start residue: 481) (UniProt P48454)",0.309
17,"GTF2A1 (peptide sequence: SVIEDVINDVR, peptide start residue: 16) (UniProt P52655)",-0.281
18,"SRP9 (peptide sequence: VTDDLVCLVYKTDQAQDVKK, peptide start residue: 42) (UniProt P49458)",0.414
19,"PRIM1 (peptide sequence: SGIVEYLSLVK, peptide start residue: 183) (UniProt P49642)",0.101

# A few values from the entries so far.
# PAPOLA (peptide sequence: SSGNAATSGNAATKIPTPIVGVKR, peptide start residue: 628) (UniProt P51003) – log2 fold change: 0.216
# PPP3CC (peptide sequence: KDSIHAGGPMK, peptide start residue: 481) (UniProt P48454) – log2 fold change: 0.309

# The list goes on.

row,Target,log2 fold change
1,"MAP1B (peptide sequence: TSDVGGYYYEK, peptide start residue: 1898) (UniProt P46821)",0.093
2,"CENPF (peptide sequence: TKHECQNLESEPIR, peptide start residue: 1162) (UniProt P49454)",-0.27
3,"NEDD4 (peptide sequence: LLDGFFIRPFYK, peptide start residue: 1070) (UniProt P46934)",0.809
4,"LRBA (peptide sequence: SFGQTPSQLLIEPHPPR, peptide start residue: 2473) (UniProt P50851)",-0.972
5,"ARRB1 (peptide sequence: GMKDDKEEEEDGTGSPQLNNR, peptide start residue: 398) (UniProt P49407)",0.186
6,"UniProt P54368 (peptide sequence: WCSDAPHPPLKIPGGR, peptide start residue: 66)",0.302
7,"GSS (peptide sequence: QYSLQNWEAR, peptide start residue: 274) (UniProt P48637)",-0.294
8,"CLCN7 (peptide sequence: DRDDEEAAPLLR, peptide start residue: 14) (UniProt P51798)",0.0993
9,"RAB9A (peptide sequence: SDHLIQTDTVNLHR, peptide start residue: 179) (UniProt P51151)",-0.25
10,"SERPINH1 (peptide sequence: TDGALLVNAMFFKPHWDEK, peptide start residue: 195) (UniProt P50454)",0.152
11,"PRKAG1 (peptide sequence: LVVFDTSLQVK, peptide start residue: 48) (UniProt P54619)",-0.384
12,"ALDH9A1 (peptide sequence: IIREREDEIATMECINNGK, peptide start residue: 83) (UniProt P49189)",0.453
13,"INPP1 (peptide sequence: IFGAAGAGYK, peptide start residue: 284) (UniProt P49441)",0.161
14,"GCLC (peptide sequence: YSGSKTDSSN, peptide start residue: 628) (UniProt P48506)",0.663
15,"NUDT2 (peptide sequence: ACGLIIFR, peptide start residue: 5) (UniProt P50583)",-0.0629
16,"CARS (peptide sequence: KQEQEAAKLAK, peptide start residue: 672) (UniProt P49589)",0.871
17,"MRPL19 (peptide sequence: TDPLKFQIERK, peptide start residue: 87) (UniProt P49406)",-0.0903
18,"RGS19 (peptide sequence: FLSSPTYR, peptide start residue: 196) (UniProt P49795)",0.145
